# According to PubChem BioAssay AID588497 (NMMLSC, 2011):
# The campaign covered roughly 360,000 compounds. About 780 (0.22%) were called active. The inconclusive results got no clear call from the source; some entries with a clear call stand among them for comparison. Rule as the data show it: active = inhibition above about 35% (passing the limit was not always enough); inconclusive = no clear call, values can overlap the other calls.
# Test system: Botulinum neurotoxin type F light chain protease (Clostridium botulinum)
# Experiment: BoNT/F light chain protease inhibitors, primary screen, biochemical, flow cytometry, MLPCN library (AID 588497); also: plate controls were buffer without enzyme for full effect and enzyme alone for no effect
# Conditions: Multiplex microsphere protease cleavage assay, at 10 µM, stronger effect = higher value
row,Structure (SMILES),inhibition
1,COc1ccccc1N1CCN(Cc2cccc(OC)c2OC)CC1,inactive: 5.6%
2,COc1cccc(NC(=O)COc2ccc(C(=O)N3CCN(C)CC3)cc2)c1,inactive: 9.7%
3,Clc1cccc(CNCCCSc2ncccn2)c1Cl,inconclusive: -86.7%
4,CC(=O)c1cccc(Nc2nc(-c3sc(C)nc3C)cs2)c1,inconclusive: 13.9%
5,CC1CN(c2cnn(C(C)C)c(=O)c2Cl)CC(C)O1 (configuration not stated),inactive: -10%
6,Cc1ccccc1N(CC(=O)NCCSCc1ccccc1)S(C)(=O)=O,inconclusive: -29.7%
7,O=C1C2CCN(CC2)C12CC2c1ccc(C(F)(F)F)cc1 (configuration not stated),inconclusive: -11.2%
8,COc1cccc(C(=O)N(Cc2cccs2)C2CCS(=O)(=O)C2)c1 (configuration not stated),inconclusive: 12.4%
9,COc1cccc(-c2ccc3c(N)c(C(=O)NC4CC4)sc3n2)c1,inconclusive: 20.4%
10,CC(C)CCN1CCNC(=O)C1CC(=O)Nc1ccc(F)cc1 (configuration not stated),inconclusive: 2.8%
11,N/C(=N\c1nc2ccccc2o1)NC(=O)/C=C/c1ccccc1,inconclusive: -12.6%
12,Cc1ccc(S(=O)(=O)N(CCCN(C)C)Cc2ccc3c(c2)OCO3)cc1,inconclusive: -10.3%
13,OC[C@H]1O[C@H](c2nc(-c3nc(-c4cccc(-n5cccc5)c4)no3)cs2)C[C@@H]1O,inactive: -4.1%
14,CC1CCCCC1NC(=O)CSc1nnc(CN2CCOCC2)n1C (configuration not stated),inactive: 8.7%
15,Cc1ccc(NC(=O)c2c(C)noc2-c2snnc2C)cc1,inconclusive: 55.2%
16,Cc1ccc(S(=O)(=O)N2CCN(CCOc3cccc(C)c3)CC2)cc1,inconclusive: 7.1%
17,COc1ccc2c(c1)O/C(=C\c1sccc1C)C2=O,active: 39.8%
18,Cc1nc2c(c(=O)c3ccccc3n2C)c(=O)n1-c1ccccc1,inconclusive: -16.9%
19,O=C(Nc1cc(Cl)cc(Cl)c1)c1cccnc1,inconclusive: 34.6%
20,CCOc1ccc(/C=N/NC(=O)c2nnn(-c3nonc3N)c2COc2ccc(F)cc2)cc1,inconclusive: -45.3%
21,Cc1cccc(C(C)C)c1NC(=O)c1cccnc1,inconclusive: -35.9%
22,CCN(C(=O)/C=C/c1cc(OC)c(OC)c(OC)c1)C1CCCCC1,inconclusive: -46.1%
23,CN1CCN(CC(=O)Nc2nc3c(s2)CCCC3)CC1,inconclusive: -55.3%

row,Structure (SMILES),inhibition
1,COc1ccc(N2CCN(C(=S)Nc3ccc(F)cc3)CC2)cc1,inconclusive: -18.4%
2,CCOc1ccc(C(=O)N/N=C/c2ccc(-c3ccc(S(=O)(=O)Nc4ncccn4)cc3)o2)cc1,inactive: -1%
3,COc1ccc(CCN2CC(C(=O)NCc3ccco3)CC2=O)cc1OC (configuration not stated),inactive: -0.1%
4,CCCOc1ccc(CSC(CC(=O)O)C(=O)O)cc1 (configuration not stated),inconclusive: -24.6%
5,Cc1n[nH]c2ccc([N+](=O)[O-])cc2c1=O,inactive: -2.5%
6,CNc1oc(/C=C/c2cccc(OC)c2)nc1C#N,inconclusive: 0.3%
7,O=C(c1ccc(-c2ccccc2Cl)o1)N1CCN(c2ccccc2O)CC1,inconclusive: -1.3%
8,Cn1c(=O)c2[nH]c(CCCCCCCCc3nc4ccccc4[nH]3)nc2n(C)c1=O,inactive: -3%
9,Nc1nnc(CC(=O)N/N=C/c2ccc(-c3ccc(F)cc3)o2)s1,active: 38.3%
10,COc1cccc(-c2cnc3c(NC=O)cc(-c4ccc(S(C)(=O)=O)cc4)cn23)c1,inactive: -1.6%
11,CCOC(=O)C1(CCOc2ccccc2)CCN(Cc2cccc(OC)c2)CC1,inconclusive: 10.2%
12,Cc1ccc(NC(=O)c2c(F)cccc2Cl)cc1NS(C)(=O)=O,inconclusive: -125%
13,CCC(=Nc1ccccc1N)c1c(O)[nH]c(=O)[nH]c1=O,inconclusive: 6.5%
14,Nc1ccc2nc(-c3cccc(-c4nc5ccc(N)cc5[nH]4)n3)[nH]c2c1,inconclusive: -228%
15,CC(=O)Oc1ccc(C(=O)[C@H]2[C@H]3C(=O)N(c4ccc(C)cc4C)C(=O)[C@H]3[C@@H]3C=CC=NN32)cc1,inconclusive: -30.4%
16,O=C(CNS(=O)(=O)N1CCOCC1)N/N=C/c1cccnc1,inactive: -3.9%
17,Cc1cc(C(=O)N2CCc3ccccc3C2)c(C)o1,inconclusive: -1.6%
18,CCc1ccc(N(CC(=O)N2CCOCC2)S(C)(=O)=O)cc1,inconclusive: 13.7%
19,Clc1ccc(C2Nc3cccc4cccc(c34)N2)cc1,inconclusive: 7%
20,CCOc1ccc(OCC)c(NS(=O)(=O)c2cn(C)cn2)c1,inactive: 1.3%
21,CCn1nc(C(=O)NCCc2ccc(S(N)(=O)=O)cc2)c2ccccc2c1=O,inconclusive: -7.9%
22,O=C(c1ccc(Cl)cc1[N+](=O)[O-])N1CCOCC1,inactive: -2.7%
23,Cn1cnc([N+](=O)[O-])c1NCc1ccccc1,active: 40%

# Three structures already listed, arranged by molar mass, descending:
row,Structure (SMILES),inhibition
6,Cc1ccccc1N(CC(=O)NCCSCc1ccccc1)S(C)(=O)=O,inconclusive: -29.7%
7,O=C1C2CCN(CC2)C12CC2c1ccc(C(F)(F)F)cc1 (configuration not stated),inconclusive: -11.2%
17,Cc1cc(C(=O)N2CCc3ccccc3C2)c(C)o1,inconclusive: -1.6%

# The listing continues:

row,Structure (SMILES),inhibition
1,CCC(C)n1c(=N)c(C#N)cc2c(=O)n3ccccc3nc21 (configuration not stated),inactive: 1.2%
2,Cn1c(S(=O)(=O)c2ccc([N+](=O)[O-])cc2)nc(Br)c1Br,inconclusive: -7.5%
3,CC(CO)(CO)N=Cc1c(O)n(-c2cccc3ccccc23)c(=O)[nH]c1=O,inconclusive: 17.3%
4,CCOc1cc(/C=C2\COc3ccccc3C2=O)cc(Br)c1OCC(=O)N(C)C,inactive: -11.2%
5,COc1ccccc1/C=C/C1=NC(=C\C=C/c2ccccc2)/C(=O)O1,active: 58.4%
6,CCOc1ccc(OCCC(=O)OCC(=O)Nc2cc(C)nn2-c2ccccc2)cc1,inconclusive: 12.1%
7,COc1ccccc1COC(=O)N/C=C/c1ccco1,inactive: -5.2%
8,CCn1nc(C)cc1C(=O)Sc1ccc(C)cc1,inconclusive: 20.9%
9,CC1(C)CC(=O)C(C=NCCN2CCN(C(=O)Cc3ccccc3)CC2)=C(O)C1,inactive: -16.8%
10,Cc1cc(C(=O)OC(C)C(=O)Nc2cccc(S(=O)(=O)N3CCOCC3)c2)c(C)o1 (configuration not stated),inconclusive: 4.1%
11,CCCCOCCCNC(=O)C[C@@H]1C[C@@]2(C(=O)OCC)CCCC=C2N(Cc2ccc3c(c2)OCO3)C1=O,inactive: -6.9%
12,CCN(CC(=O)Nc1ccc2c(c1)OCCO2)C(=O)c1ccc(S(=O)(=O)N(C)C)cc1,inconclusive: -19%
13,COc1ccc(C2CC(c3ccc([N+](=O)[O-])cc3)=NN2C(C)=O)cc1 (configuration not stated),inconclusive: 10.1%
14,O=C1CCN(Cc2ccccc2)CCN1CCO,inactive: -6.8%
15,CSc1ccccc1NC(=O)C1CCCN(S(C)(=O)=O)C1 (configuration not stated),inconclusive: 12%
16,Cc1ccc(/C=N/n2c(-c3ccco3)n[nH]c2=S)cc1,inconclusive: 23.6%
17,CCn1c(=S)[nH]c2cc(Cl)ccc21,inconclusive: 27.8%
18,Cn1nc(C(F)(F)F)c(-c2ccc(Br)cc2)c1NC(=O)c1nccnc1C(=O)O,inconclusive: -9.6%
19,Cn1ccc2c(/C=C/c3ccc(F)cc3)cc3c(c21)C1CCC3O1 (configuration not stated),inactive: 6.9%
20,CC(C)C(=O)Nc1ccc2nn(-c3ccc(F)cc3)nc2c1,inconclusive: -2.5%
21,CC(=NCC1CCCO1)c1c(O)n(-c2ccccc2C)c(=O)[nH]c1=O (configuration not stated),inconclusive: 179%
22,COc1ccc(-c2nc(-c3ccncc3)no2)c(OC)c1,inconclusive: -39.8%
23,Cc1cc(C)nc(/N=C(\NC(=O)C(C)(C)C)Nc2ccccc2)n1,inconclusive: 13%

# Shown tab-delimited: 2 of the compounds above.
row	Structure (SMILES)	inhibition
4	CCOc1cc(/C=C2\COc3ccccc3C2=O)cc(Br)c1OCC(=O)N(C)C	inactive: -11.2%
13	COc1ccc(C2CC(c3ccc([N+](=O)[O-])cc3)=NN2C(C)=O)cc1 (configuration not stated)	inconclusive: 10.1%

# Carrying on.

row,Structure (SMILES),inhibition
1,O=S(=O)(Nc1ccc(Cl)nn1)c1ccccc1,active: 38.3%
2,CCC1CC(CSC(=N)N)OC1=O (configuration not stated),inconclusive: 11.5%
3,CCOc1ccc(S(=O)(=O)NCc2ccc3c(c2)OCO3)cc1C,inconclusive: 35.7%
4,COc1ccc(Cl)cc1NC(=O)CN(C)CC(=O)Nc1ccc(Br)cc1,inactive: -3.3%
5,Cc1ccc(Cc2cnc(NC(=O)c3cccs3)s2)cc1,inconclusive: -54.7%
6,COc1cccc(-c2nc(N3CCC(C)CC3)c3ccccc3n2)c1O,inconclusive: 29.4%
7,CC[C@]12c3[nH]c4ccc(OC)cc4c3CCN1C(=O)C(CC(=O)NCC13CC4CC(CC(C4)C1)C3)C[C@@H]2C(=O)N1CCN(C(=O)C2CC2)CC1 (some centres not stated),inactive: -0.8%
8,COc1ccc(-c2c3c(cc(C)[n+]2[O-])oc2ccc(OC)cc23)cc1,inactive: -4.1%
9,COc1ccc(/C=N/Nc2nn3cnnc3c3ccccc23)cc1,inconclusive: -44.8%
10,COc1cc(OC)nc(Oc2ccc(N)c(C)c2)n1,inconclusive: -21.1%
11,CCc1nc2ccc(C(=O)N(CC)CCN(C)C)cn2c1N(C)C(=O)C1CCCCC1,inactive: 4.3%
12,CC1C(=O)C(C)(C)C(=O)OC1c1ccccc1 (configuration not stated),inconclusive: -138%
13,CC(=O)Nc1nc(CC(C)C)cc2c1c(=O)oc1ccccc12,inconclusive: 9.9%
14,CC(NC(=O)Cn1ccsc1=N)C12CC3CC(CC(C3)C1)C2 (configuration not stated),inconclusive: -39.6%
15,COc1cc(/C=C2\SC(=S)N(CCC(=O)Nc3cccc(O)c3)C2=O)cc(OC)c1OC,inconclusive: -11.9%
16,O=C(NNC(=O)C1CCC1)c1ccc(Br)cc1,inactive: -5.8%
17,CN(C)c1ccc(C(=S)N2CCCCC2)cc1Br,inactive: 4.4%
18,O=c1ccc2c([nH]1)CCCCCCCCCC2,inconclusive: -12.1%
19,CC(C)COC(=O)CCNc1n[nH]c(=O)[nH]c1=O,inconclusive: 4.6%
20,CCCCC(CC)C1OCC(CN2CCCC2)O1 (configuration not stated),inactive: 11.3%
21,COc1ccc(S(=O)(=O)Nc2ccc(S(=O)(=O)Nc3ccc(F)cc3)cc2)cc1C,inconclusive: -11.8%
22,Cn1c(CN2CCN(C(=O)c3ccco3)CC2)nc2cc([N+](=O)[O-])ccc21,inactive: -2.7%
23,NC(=S)Nc1ccc(Cl)c(Cl)c1,inconclusive: -51.1%

# By substructure, those above containing a CF3 group.
row,Structure (SMILES),inhibition
7,O=C1C2CCN(CC2)C12CC2c1ccc(C(F)(F)F)cc1 (configuration not stated),inconclusive: -11.2%
18,Cn1nc(C(F)(F)F)c(-c2ccc(Br)cc2)c1NC(=O)c1nccnc1C(=O)O,inconclusive: -9.6%
